Test in all cases: co-IP
The target in assay [1] is N-terminal FLAG-tagged mouse MINK1 (misshapen-like kinase 1) (mouse) (UniProt Q9JM52).
The target of assay [2] is N-terminal FLAG-tagged mouse NRK (NCK-interacting kinase (NIK)-related kinase) (mouse) (UniProt Q9R0G8).
Assay [3] addresses T1, mNRK^1-564 (amino acids 1-564 of mouse NRK) (mouse) (UniProt Q9R0G8).
T1 sequence: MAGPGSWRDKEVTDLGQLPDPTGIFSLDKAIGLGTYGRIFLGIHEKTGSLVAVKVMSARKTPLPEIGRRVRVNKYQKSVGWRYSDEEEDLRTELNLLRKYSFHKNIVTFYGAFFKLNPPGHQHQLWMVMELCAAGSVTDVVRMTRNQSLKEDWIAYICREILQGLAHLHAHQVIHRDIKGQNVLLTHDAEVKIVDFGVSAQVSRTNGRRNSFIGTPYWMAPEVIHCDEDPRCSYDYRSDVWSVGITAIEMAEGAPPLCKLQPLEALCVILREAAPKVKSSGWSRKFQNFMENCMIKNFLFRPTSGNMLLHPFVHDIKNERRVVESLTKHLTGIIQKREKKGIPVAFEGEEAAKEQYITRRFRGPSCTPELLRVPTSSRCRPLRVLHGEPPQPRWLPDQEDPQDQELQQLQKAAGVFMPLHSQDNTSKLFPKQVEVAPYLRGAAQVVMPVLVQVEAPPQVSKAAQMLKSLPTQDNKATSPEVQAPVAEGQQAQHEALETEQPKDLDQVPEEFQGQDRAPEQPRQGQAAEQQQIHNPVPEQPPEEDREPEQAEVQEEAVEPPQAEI

Amino acid sequences for entries named in this document (tags omitted). A change or cut given only in a name is not applied to a line headed by its entry. Chains listed by the source or under a name are the forms on record and can include a tag or linker.
N-terminal FLAG-tagged mouse MINK1 (misshapen-like kinase 1) (Q9JM52, form named): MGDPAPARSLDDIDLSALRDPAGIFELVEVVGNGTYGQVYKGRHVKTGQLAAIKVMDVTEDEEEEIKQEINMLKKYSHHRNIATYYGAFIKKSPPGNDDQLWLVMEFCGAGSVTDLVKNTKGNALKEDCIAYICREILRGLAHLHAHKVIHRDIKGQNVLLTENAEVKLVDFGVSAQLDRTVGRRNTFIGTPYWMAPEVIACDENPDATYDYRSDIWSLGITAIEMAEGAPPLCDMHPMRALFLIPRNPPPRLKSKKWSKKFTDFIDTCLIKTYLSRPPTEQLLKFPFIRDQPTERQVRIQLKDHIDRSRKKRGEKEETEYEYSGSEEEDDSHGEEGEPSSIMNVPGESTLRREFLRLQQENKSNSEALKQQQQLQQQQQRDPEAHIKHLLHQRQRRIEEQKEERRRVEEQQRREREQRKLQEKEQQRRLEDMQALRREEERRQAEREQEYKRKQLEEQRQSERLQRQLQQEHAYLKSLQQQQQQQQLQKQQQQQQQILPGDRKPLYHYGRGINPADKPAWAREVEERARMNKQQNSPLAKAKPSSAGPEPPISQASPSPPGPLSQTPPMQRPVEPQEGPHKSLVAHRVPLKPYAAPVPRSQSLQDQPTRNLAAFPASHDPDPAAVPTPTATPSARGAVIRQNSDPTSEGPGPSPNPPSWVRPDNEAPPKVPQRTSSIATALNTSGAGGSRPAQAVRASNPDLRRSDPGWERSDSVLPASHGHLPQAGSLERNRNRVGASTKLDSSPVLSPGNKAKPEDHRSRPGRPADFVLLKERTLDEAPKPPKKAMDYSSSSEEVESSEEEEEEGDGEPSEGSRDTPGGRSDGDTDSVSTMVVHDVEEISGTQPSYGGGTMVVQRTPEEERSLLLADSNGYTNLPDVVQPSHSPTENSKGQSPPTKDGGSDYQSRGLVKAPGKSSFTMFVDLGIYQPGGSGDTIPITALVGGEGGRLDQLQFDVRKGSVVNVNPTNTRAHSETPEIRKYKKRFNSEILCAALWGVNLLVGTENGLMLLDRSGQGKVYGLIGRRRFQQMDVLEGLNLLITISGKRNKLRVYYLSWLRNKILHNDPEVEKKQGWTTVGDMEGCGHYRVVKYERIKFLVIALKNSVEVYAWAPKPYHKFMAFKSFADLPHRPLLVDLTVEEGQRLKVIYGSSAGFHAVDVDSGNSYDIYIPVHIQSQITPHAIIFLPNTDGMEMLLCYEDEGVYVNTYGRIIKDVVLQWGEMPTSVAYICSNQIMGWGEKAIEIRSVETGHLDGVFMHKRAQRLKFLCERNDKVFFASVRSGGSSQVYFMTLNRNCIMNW
UniProt P67871: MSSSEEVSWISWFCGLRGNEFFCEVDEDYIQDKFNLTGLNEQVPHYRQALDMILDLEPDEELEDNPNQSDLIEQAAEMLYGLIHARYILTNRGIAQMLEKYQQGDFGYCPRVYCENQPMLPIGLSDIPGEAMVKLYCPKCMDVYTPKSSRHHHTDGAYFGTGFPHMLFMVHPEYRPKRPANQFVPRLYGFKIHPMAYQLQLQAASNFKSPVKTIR

For assay [4], the target named is T2, mNRK^1-868 (amino acids 1-868 of mouse NRK) (mouse) (UniProt Q9R0G8).
T2 sequence: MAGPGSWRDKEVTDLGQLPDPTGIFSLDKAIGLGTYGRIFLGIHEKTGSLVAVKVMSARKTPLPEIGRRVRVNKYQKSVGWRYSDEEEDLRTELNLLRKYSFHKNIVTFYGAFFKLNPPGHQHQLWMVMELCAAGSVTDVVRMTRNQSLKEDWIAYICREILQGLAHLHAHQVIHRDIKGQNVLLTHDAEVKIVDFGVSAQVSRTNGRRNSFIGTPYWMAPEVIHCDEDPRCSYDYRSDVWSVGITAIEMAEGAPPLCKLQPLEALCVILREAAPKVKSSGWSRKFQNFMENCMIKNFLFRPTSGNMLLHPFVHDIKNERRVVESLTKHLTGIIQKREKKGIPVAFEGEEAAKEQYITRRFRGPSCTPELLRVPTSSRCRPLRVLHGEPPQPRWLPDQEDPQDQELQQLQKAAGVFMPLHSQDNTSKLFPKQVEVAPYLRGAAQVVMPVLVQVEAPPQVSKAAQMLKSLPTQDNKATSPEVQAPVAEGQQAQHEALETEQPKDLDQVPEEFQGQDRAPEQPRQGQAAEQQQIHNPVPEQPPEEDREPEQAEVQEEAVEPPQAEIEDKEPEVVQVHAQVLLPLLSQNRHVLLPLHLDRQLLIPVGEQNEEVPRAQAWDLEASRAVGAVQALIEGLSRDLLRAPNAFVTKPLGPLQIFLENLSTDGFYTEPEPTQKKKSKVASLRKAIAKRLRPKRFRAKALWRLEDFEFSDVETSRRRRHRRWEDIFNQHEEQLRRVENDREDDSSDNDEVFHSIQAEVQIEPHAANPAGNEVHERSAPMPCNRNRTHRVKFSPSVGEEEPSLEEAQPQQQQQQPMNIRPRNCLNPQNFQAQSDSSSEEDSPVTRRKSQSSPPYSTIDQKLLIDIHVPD

The target in assay [5] is T3, mNRK^565-1455 (amino acids 565-1455 of mouse NRK) (mouse) (UniProt Q9R0G8).
T3 sequence: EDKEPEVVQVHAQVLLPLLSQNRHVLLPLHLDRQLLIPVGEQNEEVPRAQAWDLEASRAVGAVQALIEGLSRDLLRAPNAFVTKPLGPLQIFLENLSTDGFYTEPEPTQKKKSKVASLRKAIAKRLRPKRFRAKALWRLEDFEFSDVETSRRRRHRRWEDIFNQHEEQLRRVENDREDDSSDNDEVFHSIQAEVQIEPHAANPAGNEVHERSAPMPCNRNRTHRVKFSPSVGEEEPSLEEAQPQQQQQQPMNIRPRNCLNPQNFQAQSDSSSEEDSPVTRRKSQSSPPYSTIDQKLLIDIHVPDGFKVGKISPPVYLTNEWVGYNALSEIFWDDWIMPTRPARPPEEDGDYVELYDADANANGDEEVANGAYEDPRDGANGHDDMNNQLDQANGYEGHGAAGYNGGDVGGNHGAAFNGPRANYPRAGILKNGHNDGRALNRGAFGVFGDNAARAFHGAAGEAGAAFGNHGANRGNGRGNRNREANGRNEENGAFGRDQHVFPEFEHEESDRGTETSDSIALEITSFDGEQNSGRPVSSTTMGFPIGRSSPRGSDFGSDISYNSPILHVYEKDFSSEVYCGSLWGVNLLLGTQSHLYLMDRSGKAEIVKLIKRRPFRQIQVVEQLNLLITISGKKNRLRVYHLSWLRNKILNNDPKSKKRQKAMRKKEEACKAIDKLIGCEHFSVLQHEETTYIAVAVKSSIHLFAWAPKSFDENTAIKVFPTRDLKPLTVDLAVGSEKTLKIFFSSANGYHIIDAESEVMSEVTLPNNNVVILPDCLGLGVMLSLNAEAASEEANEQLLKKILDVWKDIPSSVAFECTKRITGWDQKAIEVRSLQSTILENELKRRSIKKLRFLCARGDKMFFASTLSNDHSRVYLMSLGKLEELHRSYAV

Assay [6] concerns the target T4, mNRK^869-1455 (amino acids 869-1455 of mouse NRK) (mouse) (UniProt Q9R0G8).
T4 sequence: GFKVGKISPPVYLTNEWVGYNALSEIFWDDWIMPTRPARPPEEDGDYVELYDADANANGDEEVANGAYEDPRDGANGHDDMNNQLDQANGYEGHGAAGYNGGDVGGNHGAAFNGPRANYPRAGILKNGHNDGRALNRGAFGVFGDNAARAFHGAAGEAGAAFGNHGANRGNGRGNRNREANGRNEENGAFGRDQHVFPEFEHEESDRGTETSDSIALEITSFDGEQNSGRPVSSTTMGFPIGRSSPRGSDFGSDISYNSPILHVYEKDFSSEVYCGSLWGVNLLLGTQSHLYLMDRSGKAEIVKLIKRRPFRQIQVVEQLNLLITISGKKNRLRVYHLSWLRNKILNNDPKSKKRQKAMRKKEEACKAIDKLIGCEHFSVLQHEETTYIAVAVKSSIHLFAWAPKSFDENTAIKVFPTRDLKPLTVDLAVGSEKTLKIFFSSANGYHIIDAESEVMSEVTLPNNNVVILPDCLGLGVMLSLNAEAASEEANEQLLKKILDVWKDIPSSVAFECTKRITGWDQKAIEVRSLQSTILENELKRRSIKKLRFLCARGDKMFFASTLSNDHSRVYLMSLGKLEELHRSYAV

Assay [7] concerns the target T5, mNRK^Δ565-868 (mouse NRK mutant lacking aa 565-868) (mouse) (UniProt Q9R0G8).
T5 sequence: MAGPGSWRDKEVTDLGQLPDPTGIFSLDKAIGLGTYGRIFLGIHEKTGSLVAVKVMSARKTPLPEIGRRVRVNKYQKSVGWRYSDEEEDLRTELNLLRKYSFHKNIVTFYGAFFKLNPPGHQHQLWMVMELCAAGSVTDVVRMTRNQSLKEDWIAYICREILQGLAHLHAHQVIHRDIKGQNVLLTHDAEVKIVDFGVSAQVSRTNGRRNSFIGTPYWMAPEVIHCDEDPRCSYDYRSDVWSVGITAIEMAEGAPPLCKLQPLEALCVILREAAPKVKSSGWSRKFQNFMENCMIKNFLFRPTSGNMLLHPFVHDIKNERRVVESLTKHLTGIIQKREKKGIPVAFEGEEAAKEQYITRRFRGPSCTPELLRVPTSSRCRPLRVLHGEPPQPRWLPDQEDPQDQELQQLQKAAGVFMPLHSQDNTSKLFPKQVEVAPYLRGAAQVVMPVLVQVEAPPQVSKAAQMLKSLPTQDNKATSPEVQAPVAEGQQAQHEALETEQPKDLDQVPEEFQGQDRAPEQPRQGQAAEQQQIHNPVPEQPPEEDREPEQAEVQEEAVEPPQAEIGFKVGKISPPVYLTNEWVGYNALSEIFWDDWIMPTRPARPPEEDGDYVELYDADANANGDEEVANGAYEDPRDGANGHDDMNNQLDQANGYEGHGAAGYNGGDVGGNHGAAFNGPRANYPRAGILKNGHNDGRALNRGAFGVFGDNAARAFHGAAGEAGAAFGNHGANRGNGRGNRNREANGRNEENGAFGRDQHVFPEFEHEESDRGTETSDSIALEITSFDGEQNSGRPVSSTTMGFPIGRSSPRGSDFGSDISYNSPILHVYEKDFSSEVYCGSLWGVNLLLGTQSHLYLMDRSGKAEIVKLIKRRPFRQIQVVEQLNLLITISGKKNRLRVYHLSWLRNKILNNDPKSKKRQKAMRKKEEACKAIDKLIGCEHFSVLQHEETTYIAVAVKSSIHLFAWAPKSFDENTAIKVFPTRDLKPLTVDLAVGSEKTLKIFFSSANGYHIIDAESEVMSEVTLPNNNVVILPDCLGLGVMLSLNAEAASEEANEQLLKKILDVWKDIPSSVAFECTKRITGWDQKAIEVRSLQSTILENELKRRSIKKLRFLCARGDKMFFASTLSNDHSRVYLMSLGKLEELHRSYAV

Assay [8] concerns the target T6, mNRK^Δ832-868 (mouse NRK mutant lacking aa 832-868) (mouse) (UniProt Q9R0G8).
T6 sequence: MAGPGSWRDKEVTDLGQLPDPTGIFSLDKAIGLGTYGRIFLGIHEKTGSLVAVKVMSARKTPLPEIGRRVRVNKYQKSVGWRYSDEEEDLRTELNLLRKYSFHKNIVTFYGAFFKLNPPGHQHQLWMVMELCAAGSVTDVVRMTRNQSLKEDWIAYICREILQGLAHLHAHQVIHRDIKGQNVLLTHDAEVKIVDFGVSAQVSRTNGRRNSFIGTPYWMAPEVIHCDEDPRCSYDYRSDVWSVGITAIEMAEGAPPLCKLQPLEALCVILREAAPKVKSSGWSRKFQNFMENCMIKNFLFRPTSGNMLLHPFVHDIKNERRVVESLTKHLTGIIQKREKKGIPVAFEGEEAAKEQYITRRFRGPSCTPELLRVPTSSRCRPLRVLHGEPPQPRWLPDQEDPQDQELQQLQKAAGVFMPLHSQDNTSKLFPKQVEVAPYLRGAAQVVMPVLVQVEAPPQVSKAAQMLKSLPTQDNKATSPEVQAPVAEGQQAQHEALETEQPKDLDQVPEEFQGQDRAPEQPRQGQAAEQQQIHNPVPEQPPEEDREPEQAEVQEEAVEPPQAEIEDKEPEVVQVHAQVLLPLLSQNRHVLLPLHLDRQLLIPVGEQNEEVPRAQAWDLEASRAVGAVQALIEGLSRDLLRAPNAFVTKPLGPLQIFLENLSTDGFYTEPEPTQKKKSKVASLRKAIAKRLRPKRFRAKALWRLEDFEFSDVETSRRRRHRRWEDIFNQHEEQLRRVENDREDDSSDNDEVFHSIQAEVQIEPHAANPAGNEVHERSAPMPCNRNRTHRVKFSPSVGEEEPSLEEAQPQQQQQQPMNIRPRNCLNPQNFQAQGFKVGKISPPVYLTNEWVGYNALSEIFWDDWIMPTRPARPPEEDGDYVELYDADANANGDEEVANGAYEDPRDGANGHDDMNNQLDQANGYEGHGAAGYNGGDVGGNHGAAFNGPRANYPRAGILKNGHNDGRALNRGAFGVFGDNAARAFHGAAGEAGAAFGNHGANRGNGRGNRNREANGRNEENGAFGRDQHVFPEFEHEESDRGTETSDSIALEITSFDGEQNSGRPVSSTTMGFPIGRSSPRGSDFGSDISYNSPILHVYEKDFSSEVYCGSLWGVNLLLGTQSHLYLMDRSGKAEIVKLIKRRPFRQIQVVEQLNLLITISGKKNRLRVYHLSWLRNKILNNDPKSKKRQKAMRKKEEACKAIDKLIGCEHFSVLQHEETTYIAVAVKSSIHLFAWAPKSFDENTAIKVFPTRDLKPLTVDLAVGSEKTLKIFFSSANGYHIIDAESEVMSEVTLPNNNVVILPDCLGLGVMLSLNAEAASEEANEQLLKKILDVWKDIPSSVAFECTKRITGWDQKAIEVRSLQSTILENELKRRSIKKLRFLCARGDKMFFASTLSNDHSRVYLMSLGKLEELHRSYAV

Results are given in words; binding and its absence hold for the method and conditions named. In cells and extracts the contact can be indirect. Some results given as binding are weak or reduced against the parent protein; the word gives no strength.

Binding data for 1 substance are collected here from publication doi:10.1101/2021.09.22.461318.

Take “N-terminal myc-tagged mouse CK2β (from UniProt P67871 1-215)”: the binding result is “no binding” in assay [1]; “binds” in assay [2]; “no binding” in assay [3]; “binds” in assay [4]; “binds” in assay [5]; “no binding” in assay [6]. The figures for the binding result in assay [7] and in assay [8] were “no binding” and “binds”, respectively.
